# Counter-ions that a name gives are not always drawn. The list shows a part of the results. Hit calls seldom repeat between salt and free forms of one compound.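 Kinases, fused to nanoluciferase, were expressed in K562 cells; luminescence was measured every 4 h from 2 to 18 h as percent of control (DMSO = 100%, positive control = 0%). A time point is decreased if signal falls significantly (2 sigma). Hits were called by the authors by a rule that is not shown; the count of time points alone does not decide it.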
# Target: EGFR_G719S_T790M (UniProt P00533)
# Assay: number of time points (of 5) at which kinase-Nluc abundance scored as decreased, DMSO-normalised (count); higher = more persistent destabilization
# Details: K562; 2-18 h
row,SMILES,number of time points
1,"CC(C)C[C@H](NC(=O)[C@H](CCCCN)NC(=O)[C@H](CO)NC(=O)[C@@H](N)CC(C)C)C(N)=O [LSKL, Inhibitor of Thrombospondin (TSP-1) (TFA)] (10 µM)",0
2,"CN1CC[C@H](c2c(O)cc(O)c3c(=O)cc(-c4ccc(C(F)(F)F)cc4Cl)oc23)[C@H]1CO [(2S,3R)-Voruciclib (hydrochloride)] (2.5 µM)",2
3,C[C@H]1[C@H](OC(=O)CCC(=O)O)O[C@@H]2O[C@@]3(C)CC[C@H]4[C@H](C)CC[C@@H]1[C@@]24OO3 [Artesunate] (2.5 µM),0
4,c1ccc(-c2nn3c(c2-c2ccnc4cc(OCCN5CCOCC5)ccc24)CCC3)nc1 (10 µM),0
5,COc1cc(N2CCC(N(C)C)CC2)ccc1Nc1ncc(Cl)c(Nc2ccccc2P(C)(C)=O)n1 (2.5 µM),0
6,Cc1ccc(-c2ncn(-c3ccc(Nc4nccc(-c5cccc(N6CCOCC6)c5)n4)cc3)n2)cn1 (10 µM),0
7,CC[C@@H]1[C@H](F)C(=O)N[C@@H]1COc1nccc2cc(C(N)=O)c(OC)cc12 (10 µM),0
8,O=C1NC(=O)/C(=C/c2ccc(-c3ccc(F)cc3O)o2)S1 (10 µM),0
9,Cc1cc(Nc2cc(CN3CCOCC3)c3nc(C)c(Cc4ccc(Cl)cc4F)n3n2)n[nH]1 [Gandotinib] (2.5 µM),0
10,CN(C)C(=O)c1ccc(S(=O)(=O)c2ccc(NC(=O)[C@@](C)(O)C(F)(F)F)c(Cl)c2)cc1 (10 µM),0
11,CCc1cccc(CC)c1NC(=O)c1nn(C)c2c1CCc1cnc(Nc3ccc(C(=O)NC4CCN(C)CC4)cc3OC(F)(F)F)nc1-2 (2 µM),0

# Given with bars between the fields: entries from further up
row | SMILES | number of time points
8 | O=C1NC(=O)/C(=C/c2ccc(-c3ccc(F)cc3O)o2)S1 (10 µM) | 0
9 | Cc1cc(Nc2cc(CN3CCOCC3)c3nc(C)c(Cc4ccc(Cl)cc4F)n3n2)n[nH]1 [Gandotinib] (2.5 µM) | 0

# From the supplement of paper PMC12823440, “Inhibitors supercharge kinase turnover through native proteolytic circuits” (Nature, 2025)
